This passage reports binding results from patent US20110217302A1.

Protein sequences, listed by entry. Tags and fused reporters are not part of them. Residues count along the entry.
UniProt P07766, residues 23-207: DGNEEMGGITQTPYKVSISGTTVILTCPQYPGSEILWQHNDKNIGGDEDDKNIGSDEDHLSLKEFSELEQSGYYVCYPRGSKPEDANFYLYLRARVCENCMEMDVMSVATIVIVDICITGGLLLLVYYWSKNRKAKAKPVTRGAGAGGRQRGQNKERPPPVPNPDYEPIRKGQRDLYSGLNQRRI

For this assay, the target named is human CD3ε (human) (UniProt P07766). Nature of the assay: flow cytometry on CD3+ Jurkat cells (read-out of the PK assay). A general note: Flow cytometry measures light scatter and fluorescence of single cells or particles in a stream.

These are yes or no findings as the source states them, for the method shown. Some entries that bind do so weakly or less than the wild type.

B1: BC3-HM1 (SEQ ID NO:84) (protein)
chain: QVQLQQSAAELARPGASVKMSCKASGYTFTRYTMQWVKQRPGQGLEWIGYINPSSGYIGYSQKFKDKTTLTADKSSSTAYMQLSSLTSEDSAVYYCARSKVYYDYDVYSMDYWGQGTSVTVSSGGGGSGGGGSGGGGSAQQIILTQSPAIMSASPGEKVTMTCSASSSVSYMHWYQQKSGTSPKRWIYDTSKLASGVPARFSGSGSGTSYSLTISSMEAEDAATYYCQQWSSNPLTFGAGTKLELKRTEPKSCDKTHTCPPCPDQDTAIRVFAIPPSFASIFLTKSTKLTCLVTDLTTYDSVTISWTRQNGEAVKTHTNISESHPNATFSAVGEASICEDDWNSGERFTCTVTHTDLPSPLKQTISRPKGQPREPQVYTLPPSRDELTKNQVSLTCLVKGFYPSDIAVEWESNGQPENNYKTTPPVLDSDGSFFLYSKLTVDKSRWQQGNVFSCSVMHEALHNHYTQKSLSLSPGKTGLNDIFEAQKIEWHEDYKDDDDKDYKDDDDKDYKDDDDKHHHHHH
Regarding B1, the binding entry is given as “binds”.
